# Source: PubChem BioAssay AID624297 (National Center for Advancing Translational Sciences (NCATS), 2012)
# Hit rate of the full screen: of about 340,000 compounds, about 6,200 (1.8%) were called active. The inconclusive results got no clear call from the source; some entries with a clear call stand among them for comparison. The call rests on the fitted dose curve; in most records, active means well fitted activation curve with a large enough effect; inconclusive means small, poorly fitted or top-dose-only effect; inactive means no such curve, though single readings can be large or run the other way. A potency beside an inconclusive call is a rough fit, not a confirmed value.
# Assay: A quantitative high throughput screen for small molecules that induce DNA re-replication in SW480 colon adenocarcinoma cells. Further: nearly all actives have a fitted effect of over 55% in size. On re-replication activation: % of control where 0% means no effect.
# Conditions: Hoechst DNA content imaging, 48 h; re-replication activation: at 46.1 µM (top of the series) unless noted
# In short: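 Cells (250 per well) received 23 nL compound or DMSO by pin tool and were kept 48 hr at 37 C, 5% CO2. Nuclei were then stained with Hoechst for 40 min and scanned for DNA content.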
# Potency means the concentration at half of the fitted maximal effect.
SMILES,Potency,re-replication activation
O=C(COc1ccccc1C(=O)O)Nc1nc2ccc([N+](=O)[O-])cc2s1,"inconclusive: 3.26 µM [activator, single point]",–
COc1ccc(CNC(=O)N2CCN(c3ccc(F)cc3)CC2)cc1Cl,inactive,–
C=CCn1c(SCC(=O)N2CCc3ccccc3C2)nc2sc(CC)cc2c1=O,inactive,–
CCOC(=O)c1c(-c2ncc(C(F)(F)F)cc2Cl)noc1C,"inconclusive: 29.1 µM [activator, single point]",–
O=C(c1nnsc1S(=O)c1ccc(Cl)cc1)N1CCOCC1 (configuration not stated),inactive,–
COc1ccc(N(CC(=O)Nc2cc(C)cc(C)c2)S(=O)(=O)c2ccccc2[N+](=O)[O-])c(OC)c1,inactive,–
COc1cccc(CN(C)CC2CCCN(CCc3ccc(Cl)cc3)C2)c1OC (configuration not stated),"inconclusive: 29.1 µM [activator, single point]",–
CCOc1ccc(NC(=O)CCC(=O)N/N=C/c2ccc([N+](=O)[O-])s2)cc1,"inconclusive: 4.61 µM [activator, full curve, poor fit]",–
COc1ccc(Cl)cc1C=CC=Nc1ccccc1O,"inconclusive: 29.1 µM [activator, single point]",–
O=C(COC(=O)c1ccc2c(c1)C(=O)N(Cc1ccco1)C2=O)NCC(F)(F)F,"inconclusive: 29.1 µM [activator, single point]",–
C=CCC(CC(O)COCCC)C(=O)NNC(=S)Nc1ccccc1 (configuration not stated),inactive,–
O=C(NCC(=O)N1CC(O)CC1C(=O)N1CC(O)CC1C(=O)OCc1ccccc1)OCc1ccccc1 (configuration not stated),"inconclusive: 18.4 µM [activator, single point]",–
COc1ccc(NC(=O)CSc2nnc3c4c(nc(-c5ccccc5)n23)CC(C)(C)OC4)cc1,"inconclusive: 5.8 µM [activator, partial curve, poor fit]",–
CCOCCCNC(=O)CN1C(=O)/C(=C/c2ccccc2C)Sc2ccccc21,"inconclusive: 23.1 µM [activator, single point]",–
COc1ccc(Cl)cc1-c1csc(N)n1,"inconclusive: 25.9 µM [activator, partial curve, poor fit]",–
COc1ccc(OC)c(NC(=O)c2cccc3c2C(=O)N(C2CCCCC2)C3)c1,–,inconclusive: 33% [activator]
O=C(Nc1ccc2c(c1)OCCO2)c1ccccc1F,"inconclusive: 29.1 µM [activator, single point]",–
COc1ccc(Nc2oc(-c3ccc(F)cc3)nc2C#N)cc1,"inconclusive: 18.4 µM [activator, single point]",–
Cc1ccc(NC(=O)CSc2nnc(-c3ccco3)o2)c(C)c1,inactive,–
CSc1nc(-c2ccccc2)c(C#N)c(=O)[nH]1,inactive,–
CC(C)[C@H](NC(=O)N1CCn2c1nc1ccccc12)C(=O)NCc1ccc2c(c1)OCO2,"inconclusive: 0.92 µM [activator, full curve, poor fit]",–
NC(=O)C1CCCN(C(=O)c2ccc(Cl)c(S(=O)(=O)N3CCc4ccccc43)c2)C1 (configuration not stated),"inconclusive: 0.0046 µM [activator, full curve, poor fit]",–
CC1CN(C2CCN(S(=O)(=O)c3ccc4ccccc4c3)CC2)CC(C)O1 (configuration not stated),"inconclusive: 3.66 µM [activator, partial curve, poor fit]",–
CCOC(=O)C1CCCN(C(=S)Nc2ccc(F)cc2)C1 (configuration not stated),inactive,–

# A second format for part of the listing above.
SMILES	Potency	re-replication activation
CCOC(=O)c1c(-c2ncc(C(F)(F)F)cc2Cl)noc1C	inconclusive: 29.1 µM [activator, single point]	–
O=C(c1nnsc1S(=O)c1ccc(Cl)cc1)N1CCOCC1 (configuration not stated)	inactive	–

# The listing continues.

SMILES,Potency,re-replication activation
O=C(NNC(=S)Nc1ccccc1)c1cc(-c2cccnc2)nc2ccccc12,inactive,–
CN(Cc1ccccc1)CC(O)COc1ccc(CNCCc2cccnc2)cc1 (configuration not stated),inactive,–
CC(=O)c1c(C)[nH]c(C(=O)CSc2ccc(F)cc2)c1C,"inconclusive: 16.4 µM [activator, partial curve, poor fit]",–
CCOC(=O)C1CCN(Cc2cccc(OCc3ccccc3)c2)CC1,inactive,–
CCN1C(C)=CC(=O)[C@@H](O)[C@H]1c1ccccc1Br,inactive,–
Nn1c(Cc2ccccc2)n[nH]c1=S,inactive,–
CCOc1cccc(C2C(C(=O)c3ccco3)=C(O)C(=O)N2c2nnc(C)s2)c1 (configuration not stated),active: 5.8 µM,–
COc1ccc(S(=O)(=O)Nc2ccccc2Cl)cc1NC(C)=O,"inconclusive: 7.31 µM [activator, partial curve, poor fit]",–
O=C(c1ccco1)N1CCCN(C(=O)c2ccco2)CC1,inactive,–
CC(C)(C)c1cc(NC(=O)c2cccs2)no1,"inconclusive: 29.1 µM [activator, single point]",–
Cc1c(C(=O)N(CCc2ccccc2)Cc2ccccc2)cccc1[N+](=O)[O-],"inconclusive: 29.1 µM [activator, single point]",–
O=c1c2ccccc2cnn1Cc1n[nH]c(=S)n1C1CC2CCC1C2 (configuration not stated),inactive,–
CCc1ccc(OCCOCC(O)CN2CCN(Cc3ccc(Cl)cc3)CC2)cc1 (configuration not stated),"inconclusive: 16.4 µM [activator, single point]",–
COc1ccc(NC(=O)CSc2ccc3c(c2)OCCO3)cc1S(N)(=O)=O,inactive,–
CCOc1ccc(OCCOC(=O)CN(C)S(=O)(=O)c2ccc(NC(C)=O)cc2)cc1,inactive,–
CCOC(=O)c1cccc(NC(=O)CSc2nncn2-c2ccccn2)c1,inactive,–
C=C(C)COc1ccc(-c2ncncc2Oc2ccc(OC)cc2)c(O)c1,"inconclusive: 20.6 µM [activator, single point]",–
Cc1cc(C)n(-c2cc(N3CCOCC3)nc(-c3ccccc3)n2)n1,"inconclusive: 23.1 µM [activator, single point]",–
CCOc1ccc(-c2cnc(NCc3cccc4ccccc34)n2CCOC)cc1,"inconclusive: 18.4 µM [activator, single point]",–
O=C(O)c1ccc(N2N=C(c3ccccc3)CC2c2ccccc2)cc1 (configuration not stated),"inconclusive: 18.4 µM [activator, single point]",–
O=[N+]([O-])c1cccc(-c2cn3nc(-c4ccccc4)c(-c4ccccc4)nc3n2)c1,active: 5.8 µM,–
COc1cccc(C(=O)NCC(c2ccco2)N2CCOCC2)c1 (configuration not stated),"inconclusive: 4.61 µM [activator, full curve, poor fit]",–
C[C@H]1CN([C@@H](C)CO)C(=O)c2cccc(NC(=O)c3ccc(-c4nccs4)cc3)c2O[C@@H]1CN(C)C(=O)NC1CCCCC1,"inconclusive: 29.1 µM [activator, single point]",–
